Laboratory results: article PMC3707052 (Alzheimer's Research & Therapy, 2013)
Where “and” joins values, the source holds several entries; their conditions need not be identical. Identical values can stand only once.

Columns and labels:
gamma-secretase [1] = assay: Six-day once-a-day oral dosing PK/PD in Tg2576 mice (brain, plasma, CSF Aβ); assay type: in vivo; details: for %Aβ38 lowering / %Aβ40 lowering / %Aβ42 lowering: 24 hrs, vs vehicle; for Brain exposure / Plasma exposure: 24 hrs post final dose
gamma-secretase [2] = assay: Six-day once-a-day oral dosing PK/PD in Sprague Dawley rats; assay type: in vivo; details: rat brain, 24 hrs post final dose, vs vehicle
Experimental: Female transgenic mice (Tg2576, 3 months of age; n = 20), wild-type male CD-1 mice (six weeks of age; n = 8 to 12) or wild-type male Sprague Dawley rats (200 to 225 g body weight; n = 12) were utilized to assess in vivo efficacy.
For wild-type rat and mouse studies, all animals were acclimated to the test facility for a minimum of two days prior to initiation of the study. Compounds were dosed orally in 10:20:70 ethanol/solutol/water or 10:20:70 ethanol/cremaphor/water via oral gavage. Samples were harvested at either at 6 or 24 hrs post dose for Aβ and compound exposure measurements. Blood samples were collected into K2ethylenediaminetetraacetic acid (EDTA) and stored on wet ice until processed to plasma by centrifugation (3,500 rpm at 5°C) within 30 minutes of collection. Each brain was dissected into three parts: left and right hemispheres and cerebellum. Brain tissues were rinsed with ice cold PBS (without Mg^2+ or Ca^2+), blotted dry and weighed. Plasma and cerebella were analyzed for parent drug via liquid chromatography/tandem mass spectrometry (LC/MS/MS). Parent drug levels were compared to a standard curve to establish the plasma and brain levels.
This protocol is a modification of protocols described by Lanz and Schachter and Rogers et al.. Frozen hemispheres were weighed into tared homogenization tubes (MP Biomedicals#6933050 for rat; MP Biomedicals, Solon, OH, USA) and (Simport#T501-4AT; Simport, Beloeil, Qc, Canada) containing one 5-mm stainless steel bead (Qiagen#69989 for mouse). For every gram of brain, 10 mLs of either 6 M guanidine hydrochloride (wild-type rat and mouse) or 0.2% diethyl amine in 50 mM NaCl (transgenic mouse) was added to the brain-containing tubes on wet ice. Rat hemispheres were homogenized for one minute and mouse hemispheres were homogenized for 30 seconds at the 6.5 setting using the FastPrep-24 Tissue and Cell homogenizer (MP Biomedicals#116004500). Homogenates were rocked for 2 hrs at 4°C, then pre-cleared by ultracentrifugation at 100,000 × g for one hour at 4°C. Pre-cleared wild-type rat and mouse homogenates were concentrated over solid phase extraction (SPE) columns (Oasis HLB 96-well SPE plate 30 μm, Waters#WAT058951; Waters Corp., Milford, MA, USA). Briefly, SPE columns were prepared by wetting with 1 mL of 100% methanol followed by dH20 using vacuum to pull liquids through. Brain homogenates were then added to the prepared columns (1.0 mL from rat and 0.7 mL from wild-type mouse). Columns were washed twice with 1 mL of 10% methanol followed by two 1 mL washes with 30% methanol. Labeled eluent collection tubes (Costar cluster tubes #4413; Corning Inc., Corning, NY, USA) were placed under SPE columns and samples were eluted under very mild vacuum with 300 μL of 2% NH4OH/90% methanol. Eluents were dried to films under vacuum with no heat in a speed vacuum microcentrifuge. Films were resuspended in 150 μL of Meso Scale Discovery (MSD, Gaithersburg, MD, USA) blocking buffer (1% BSA in MSD wash buffer) for one hour at room temperature with occasional vortexing. Transgenic mouse plasma (50 μL) was extracted in 500 μL of 6 M guanidine hydrochloride briefly at room temperature and then 450 μL was concentrated over SPE columns and dried to films as described above. Transgenic plasma films were resuspended in 225 μL of MSD blocking buffer. Pre-cleared transgenic mouse brain homogenates were diluted and neutralized as follows. A volume of 45 μL of pre-cleared transgenic mouse brain homogenates were diluted into 450 μL of blocking buffer and were neutralized with 5 μL of 0.5 M Tris pH 6.8. For Aβ38, Aβ40 and Aβ42 measurements, MSD 96-well multi-spot Human/Rodent (4G8) Aβ triplex ultra-sensitive ELISA plates, which are pre-spotted with three separate spots in each well containing capture antibodies against the unique C-terminal ends of Aβ38, Aβ40 and Aβ42, respectively, were blocked with MSD blocking buffer for one hour at room temperature with orbital shaking. […]

[3] = Tg2576 mouse CSF, 10 mg/kg oral QD six days
[4] = Tg2576 mouse CSF, 30 mg/kg oral QD six days
[5] = Tg2576 mouse CSF, 60 mg/kg oral QD six days
[6] = Tg2576 mouse CSF, 90 mg/kg oral QD six days
[7] = Tg2576 mouse brain, 10 mg/kg oral QD six days
[8] = Tg2576 mouse brain, 30 mg/kg oral QD six days
[9] = Tg2576 mouse brain, 60 mg/kg oral QD six days
[10] = Tg2576 mouse brain, 90 mg/kg oral QD six days
[11] = Tg2576 mouse plasma, 10 mg/kg oral QD six days
[12] = Tg2576 mouse plasma, 30 mg/kg oral QD six days
[13] = Tg2576 mouse plasma, 60 mg/kg oral QD six days, 60 mg/kg
[14] = Tg2576 mouse plasma, 90 mg/kg oral QD six days
[15] = Tg2576 mouse, 10 mg/kg oral QD six days, 10 mg/kg
[16] = Tg2576 mouse, 30 mg/kg oral QD six days
[17] = Tg2576 mouse, 60 mg/kg oral QD six days
[18] = Tg2576 mouse, 90 mg/kg oral QD six days, 90 mg/kg
[19] = 10 mg/kg oral QD six days, 10 mg/kg
[20] = 60 mg/kg oral QD six days, 60 mg/kg

blood-brain barrier crossing (gamma-secretase [1]; Tg2576 mice, levels measured in brain): readily crosses the blood-brain barrier
Brain exposure (gamma-secretase [1]; [15]): 0.5 µM and 0.5 ± 0.1 µM
Plasma exposure (gamma-secretase [1]; [15]): 1 µM and 1.1 ± 0.2 µM
free plasma levels (gamma-secretase [1]; Tg2576 mouse, 30 mg/kg group, calculated): 60 nM
Brain exposure (gamma-secretase [1]; [16]): 1.3 ± 0.1 µM
Plasma exposure (gamma-secretase [1]; [16]): 2.5 ± 0.1 µM
Brain exposure (gamma-secretase [1]; [17]): 3.9 ± 0.4 µM
Plasma exposure (gamma-secretase [1]; [17]): 5.4 ± 0.5 µM
free plasma fraction (concentration) (gamma-secretase [1]; Tg2576 mouse, 90 mg/kg dose group, calculated, 90 mg/kg): 154 nM
Brain exposure (gamma-secretase [1]; [18]): 6.9 µM and 6.9 ± 0.6 µM
Plasma exposure (gamma-secretase [1]; [18]): 6.4 ± 0.5 µM and 6.4 µM
SMILES: CCO[C@@H]([C@H]1C[C@@H](C)[C@H]2[C@@H](O1)[C@H](O)[C@@]1(C)[C@@H]3CC[C@H]4C(C)(C)[C@@H](O[C@H]5CN(C6CN(C(C)C)C6)CCO5)CC[C@@]45C[C@@]35CC[C@]21C)C(C)(C)O [SPI-1865]
%Aβ38 lowering (gamma-secretase [1]; [3]): -2 ± 9%
%Aβ40 lowering (gamma-secretase [1]; [3]): -3 ± 9%
%Aβ42 lowering (gamma-secretase [1]; [3]): 1 ± 11%
%Aβ38 lowering (gamma-secretase [1]; [4]): 4 ± 10%
%Aβ40 lowering (gamma-secretase [1]; [4]): 0 ± 11%
%Aβ42 lowering (gamma-secretase [1]; [4]): 6 ± 11%
%Aβ38 lowering (gamma-secretase [1]; [5]): 5 ± 9%
%Aβ40 lowering (gamma-secretase [1]; [5]): -7 ± 12%
%Aβ42 lowering (gamma-secretase [1]; [5]): 22 ± 15%
%Aβ38 lowering (gamma-secretase [1]; [6]): 9 ± 11%
%Aβ40 lowering (gamma-secretase [1]; [6]): 10 ± 13%
%Aβ42 lowering (gamma-secretase [1]; [6]): 33 ± 14%
%Aβ38 lowering (gamma-secretase [1]; [7]): -16 ± 12%
%Aβ40 lowering (gamma-secretase [1]; [7]): -14 ± 11%
%Aβ42 lowering (gamma-secretase [1]; [7]): -9 ± 10%
%Aβ38 lowering (gamma-secretase [1]; [8]): 6 ± 9%
%Aβ40 lowering (gamma-secretase [1]; [8]): 6 ± 9%
%Aβ42 lowering (gamma-secretase [1]; [8]): 7 ± 9%
%Aβ38 lowering (gamma-secretase [1]; [9]): 14 ± 10%
%Aβ40 lowering (gamma-secretase [1]; [9]): 2 ± 10%
%Aβ42 lowering (gamma-secretase [1]; [9]): 19 ± 8%
%Aβ38 lowering (gamma-secretase [1]; [10]): 27 ± 8%
%Aβ40 lowering (gamma-secretase [1]; [10]): 8 ± 9%
%Aβ42 lowering (gamma-secretase [1]; Tg2576 mouse brain, 90 mg/kg oral QD six days, 90 mg/kg): 30% and 30 ± 6%
%Aβ38 lowering (gamma-secretase [1]; [11]): 25 ± 5%
%Aβ40 lowering (gamma-secretase [1]; [11]): 6 ± 7%
%Aβ42 lowering (gamma-secretase [1]; [11]): 25 ± 5 %
%Aβ38 lowering (gamma-secretase [1]; [12]): 26 ± 5%
%Aβ40 lowering (gamma-secretase [1]; [12]): 17 ± 5%
%Aβ42 lowering (gamma-secretase [1]; Tg2576 mouse plasma, 30 mg/kg oral QD six days, 30 mg/kg): 58% and 58 ± 3 %
%Aβ40 lowering (gamma-secretase [1]; Tg2576 mouse plasma, 60 mg/kg oral QD six days): 15 ± 7%
%Aβ38 lowering (gamma-secretase [1]; [13]): 50 ± 2.4% and 50 ± 5 %
%Aβ42 lowering (gamma-secretase [1]; [13]): 71 ± 2%
%Aβ38 lowering (gamma-secretase [1]; [14]): 46 ± 6 %
%Aβ40 lowering (gamma-secretase [1]; [14]): 9 ± 6%
%Aβ42 lowering (gamma-secretase [1]; Tg2576 mouse plasma, 90 mg/kg oral QD six days, 90 mg/kg): 76 ± 2% and 76%
%Aβ40 lowering (gamma-secretase [2]; 10 mg/kg oral QD six days): 1 ± 2%
%Aβ38 lowering (gamma-secretase [2]; [19]): ~25% and 27 ± 3 %
%Aβ42 lowering (gamma-secretase [2]; [19]): ~25% and 24 ± 2 %
%Aβ40 lowering (gamma-secretase [2]; 30 mg/kg oral QD six days): 8 ± 3%
%Aβ38 lowering (gamma-secretase [2]; [20]): 61 ± 2 %
%Aβ40 lowering (gamma-secretase [2]; [20]): 26 ± 2%
